These are yes or no findings as the source states them, for the method shown. Some entries that bind do so weakly or less than the wild type.
Key:
[1] = biological target: human MCSP expressed on tumor cells (Colo-38, WM266-4, A375, MV-3, HCT-116) (human) (UniProt Q6UVK1); experiment: flow cytometry on Colo-38 cells
[2] = biological target: human MCSP expressed on tumor cells (Colo-38, WM266-4, A375, MV-3, HCT-116) (human) (UniProt Q6UVK1); experiment: flow cytometry on Colo-38 cells, dose-dependent

Sequences of proteins named here, by UniProt entry; tags and fusion partners are left off. Residues count along the entry.
UniProt Q6UVK1, residues 30-2322: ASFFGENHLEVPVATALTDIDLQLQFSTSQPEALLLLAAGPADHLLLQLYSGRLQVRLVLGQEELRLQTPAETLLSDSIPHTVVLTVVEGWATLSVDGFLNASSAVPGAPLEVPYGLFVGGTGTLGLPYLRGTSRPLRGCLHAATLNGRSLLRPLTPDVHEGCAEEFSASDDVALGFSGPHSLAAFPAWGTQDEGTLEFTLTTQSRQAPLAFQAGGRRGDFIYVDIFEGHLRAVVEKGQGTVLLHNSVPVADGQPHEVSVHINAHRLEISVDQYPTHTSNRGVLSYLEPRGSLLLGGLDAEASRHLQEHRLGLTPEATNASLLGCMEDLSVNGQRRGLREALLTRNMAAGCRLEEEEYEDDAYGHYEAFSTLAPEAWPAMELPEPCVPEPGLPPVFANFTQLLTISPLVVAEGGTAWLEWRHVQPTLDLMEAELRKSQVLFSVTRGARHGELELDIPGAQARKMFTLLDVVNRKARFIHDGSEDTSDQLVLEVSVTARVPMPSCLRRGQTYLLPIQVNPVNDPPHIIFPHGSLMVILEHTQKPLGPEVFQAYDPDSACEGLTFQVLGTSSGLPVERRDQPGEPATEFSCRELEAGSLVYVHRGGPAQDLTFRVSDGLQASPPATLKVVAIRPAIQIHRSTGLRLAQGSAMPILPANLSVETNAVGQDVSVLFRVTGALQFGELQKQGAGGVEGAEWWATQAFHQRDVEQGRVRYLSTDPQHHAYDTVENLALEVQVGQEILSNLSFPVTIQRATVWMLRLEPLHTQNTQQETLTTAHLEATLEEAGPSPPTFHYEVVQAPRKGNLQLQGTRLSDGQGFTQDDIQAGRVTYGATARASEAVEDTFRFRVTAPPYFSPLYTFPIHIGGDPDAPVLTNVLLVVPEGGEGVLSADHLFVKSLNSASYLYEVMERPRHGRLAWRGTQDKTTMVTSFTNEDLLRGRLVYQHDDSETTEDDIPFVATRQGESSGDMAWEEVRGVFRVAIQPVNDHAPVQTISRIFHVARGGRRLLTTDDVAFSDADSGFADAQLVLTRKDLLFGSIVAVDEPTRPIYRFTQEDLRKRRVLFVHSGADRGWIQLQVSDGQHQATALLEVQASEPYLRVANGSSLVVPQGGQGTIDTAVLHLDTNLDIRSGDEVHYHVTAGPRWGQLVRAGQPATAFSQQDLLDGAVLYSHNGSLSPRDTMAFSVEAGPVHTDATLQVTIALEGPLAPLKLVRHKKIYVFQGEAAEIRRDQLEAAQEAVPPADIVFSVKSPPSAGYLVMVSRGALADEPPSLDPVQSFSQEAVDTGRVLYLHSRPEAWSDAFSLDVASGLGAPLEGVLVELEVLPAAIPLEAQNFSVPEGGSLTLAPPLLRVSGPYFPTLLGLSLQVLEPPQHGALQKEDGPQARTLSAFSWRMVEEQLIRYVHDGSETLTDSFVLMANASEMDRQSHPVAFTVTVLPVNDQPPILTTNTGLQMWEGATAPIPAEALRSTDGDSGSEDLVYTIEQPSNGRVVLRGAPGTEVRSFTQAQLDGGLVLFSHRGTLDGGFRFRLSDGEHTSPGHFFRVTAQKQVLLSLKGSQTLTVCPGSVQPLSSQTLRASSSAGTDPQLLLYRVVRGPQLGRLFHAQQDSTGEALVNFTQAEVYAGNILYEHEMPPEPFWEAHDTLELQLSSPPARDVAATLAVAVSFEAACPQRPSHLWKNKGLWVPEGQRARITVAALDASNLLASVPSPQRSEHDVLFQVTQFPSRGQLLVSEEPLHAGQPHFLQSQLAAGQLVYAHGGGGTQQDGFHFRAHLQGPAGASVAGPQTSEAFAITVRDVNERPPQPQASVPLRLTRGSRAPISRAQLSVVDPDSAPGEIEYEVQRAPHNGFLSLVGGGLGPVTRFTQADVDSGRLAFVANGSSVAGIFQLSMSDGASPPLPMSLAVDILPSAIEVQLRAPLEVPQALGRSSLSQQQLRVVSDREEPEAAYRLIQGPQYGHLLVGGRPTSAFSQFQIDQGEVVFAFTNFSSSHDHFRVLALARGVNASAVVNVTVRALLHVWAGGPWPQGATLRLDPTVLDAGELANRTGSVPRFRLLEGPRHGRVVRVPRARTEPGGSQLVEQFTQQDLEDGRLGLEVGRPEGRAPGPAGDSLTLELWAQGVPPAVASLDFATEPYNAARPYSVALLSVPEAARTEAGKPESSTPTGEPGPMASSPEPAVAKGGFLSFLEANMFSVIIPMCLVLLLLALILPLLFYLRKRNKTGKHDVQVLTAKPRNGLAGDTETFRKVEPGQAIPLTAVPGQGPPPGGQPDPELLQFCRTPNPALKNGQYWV

binding [1]: binds
binding [2]: binds
B1: reference anti-human MCSP IgG (antibody, V domains shown)
VH: EVQLQESGPGLVKPSQSLSLTCSVTGYSITSGYYWNWIRQFPGNKLEWMGYITYDGSNNYNPSLKNRISITRDTSKNQFFLKLNSVTTEDTATYYCADFDYWGQGTTLTVSS
VL: DIVLTQSPSSLSASLGDRVTISCSASQGIRNYLNWYQQRPDGTVKLLIYYTSSLHSGVPSRFSGSGSGTDYSLTISNLEPEDIATYYCQQYSKLPWTFGGGTKLEIK

— patent US20140242080A1
